This series can be described thus: Static thermostability of the stabilized resin, simplified method (GARDNER sub-scale in polyvinyl chloride sheets). The method, then: These studies were performed with five different formulae of vinyl resins (hereinafter referred to as Compounds).
The different Compounds were mixed and calendered in a mixer of which the cylinders were heated to 160° C. The rigid sheets so obtained were then heated in an oven to a temperature between 180° C and 215° C, until incipient carbonization.
A stove with rotating drums, ventilated and equipped with a thermostat was used for this operation. In the trials described hereunder, the behaviour of the sheets containing one of the stabilizers to be tested was compared to that of sheets of the same formulae but containing 2-phenylindole as stabilizer.
(2) It is also possible to use a simplified method which is more rapid and with which valid results are also obtained: A reference scale is drawn up with sheets of thermally treated polyvinyl chloride, of which the colorations have been definitely determined in GARDNER degrees as above.
A GARDNER sub-scale is thus obtained in polyvinyl chloride sheets which can be directly compared to the sheets to be tested without using the comparator.

Take `COc1cc(-c2cc3ccccc3[nH]2)ccc1O` [Stabilizer 2, 2-(3'-methoxy-4'-hydroxy-phenyl)-indole]: the Coloration of sheet (Compound C, 210° C, 0 min) was < 1 GARDNER degrees; the Coloration of sheet (Compound C, 210° C, 10 min) came to 1 GARDNER degrees; the Coloration of sheet (Compound C, 210° C, 20 min) came out at 1.5 GARDNER degrees; the Coloration of sheet (Compound C, 210° C, 30 min) is 2 GARDNER degrees; the Coloration of sheet (Compound C, 210° C, 40 min) was found to be 2.5 GARDNER degrees; the Coloration of sheet (Compound C, 210° C, 50 min) is recorded as < 3 GARDNER degrees. The Coloration of sheet reads like this: (Compound C, 210° C, 55 min) 3 GARDNER degrees; (Compound C, 210° C, 60 min) < 4 GARDNER degrees; (Compound D, 185° C, 0 min) < 1 GARDNER degrees; (Compound D, 185° C, 10 min) < 1 GARDNER degrees; (Compound D, 185° C, 20 min) 1 GARDNER degrees; (Compound D, 185° C, 30 min) < 2 GARDNER degrees.
As for `COc1cc(OC)cc(-c2cc3ccccc3[nH]2)c1` [Stabilizer 3, 2-(3',5'-dimethyoxy-phenyl)-indole], the Coloration of sheet is 1 GARDNER degrees (Compound A, 210° C, 0 min); 1 GARDNER degrees (Compound A, 210° C, 3 min); 2 GARDNER degrees (Compound A, 210° C, 6 min); 3 GARDNER degrees (Compound A, 210° C, 9 min); 8 GARDNER degrees (Compound A, 210° C, 12 min); 11 GARDNER degrees (Compound A, 210° C, 15 min). In addition, the “Burning of sheet along its edges” value (Compound A, 210° C, after 15 minutes) is recorded as “the test sheet was not”.
Turning to `COc1ccc(-c2cc3ccccc3[nH]2)cc1O` [Stabilizer 13, 2-(3'-hydroxy-4'-methoxy-phenyl)-indole], the Coloration of sheet amounted to 1 GARDNER degrees (Compound A, 210° C, 0 min); 1 GARDNER degrees (Compound A, 210° C, 3 min); 1 GARDNER degrees (Compound A, 210° C, 6 min); 4 GARDNER degrees (Compound A, 210° C, 9 min); 7 GARDNER degrees (Compound A, 210° C, 12 min); 10 GARDNER degrees (Compound A, 210° C, 15 min). Also, the Coloration of sheet result (Compound A, 210° C, 18 min) is reported as “Burnt”.
In the case of `CCCCCCCCCCCCc1cc(-c2cc3ccccc3[nH]2)ccc1OC` [Stabilizer 14, 2-(3'-dodecyl-4'-methoxy-phenyl)-indole], the Coloration of sheet is recorded as 1 GARDNER degrees (Compound A, 210° C, 0 min); 1 GARDNER degrees (Compound A, 210° C, 3 min); 2 GARDNER degrees (Compound A, 210° C, 6 min); 5 GARDNER degrees (Compound A, 210° C, 9 min); 8 GARDNER degrees (Compound A, 210° C, 12 min); 10 GARDNER degrees (Compound A, 210° C, 15 min). The Coloration of sheet (Compound A, 210° C, 18 min) was found to be 16 GARDNER degrees.
Consider `COc1ccc(-c2cc3ccccc3[nH]2)cc1C(C)C` [Stabilizer 15, 2-(3'-isopropyl-4'-methoxy-phenyl)-indole], for which the Coloration of sheet runs as follows: (Compound A, 210° C, 0 min) 1 GARDNER degrees; (Compound A, 210° C, 3 min) 1 GARDNER degrees; (Compound A, 210° C, 6 min) 2 GARDNER degrees; (Compound A, 210° C, 9 min) 4 GARDNER degrees; (Compound A, 210° C, 12 min) 11 GARDNER degrees; (Compound A, 210° C, 15 min) 13 GARDNER degrees. In addition, under “Compound A, 210° C, 18 min”, the Coloration of sheet result is given as “Burnt”.
On to `COc1ccc(-c2cc3ccccc3[nH]2)cc1C1CCCCC1` [Stabilizer 16, 2-(3'-cyclohexyl-4'-methoxy-phenyl)-indole], for which the Coloration of sheet by setting is: (Compound A, 210° C, 0 min) 1 GARDNER degrees; (Compound A, 210° C, 3 min) 1 GARDNER degrees; (Compound A, 210° C, 6 min) 2 GARDNER degrees; (Compound A, 210° C, 9 min) 3 GARDNER degrees; (Compound A, 210° C, 12 min) 9 GARDNER degrees; (Compound A, 210° C, 15 min) 13 GARDNER degrees. For the same compound, the Coloration of sheet entry (Compound A, 210° C, 18 min) is reported as “Burnt”.
`COc1c(C)cc(-c2cc3ccccc3[nH]2)cc1C` [Stabilizer 17, 2-(3',5'-dimethyl-4'-methoxy-phenyl)-indole]: the Coloration of sheet was 1 GARDNER degrees (Compound A, 210° C, 0 min); 1 GARDNER degrees (Compound A, 210° C, 3 min); 1 GARDNER degrees (Compound A, 210° C, 6 min); 3 GARDNER degrees (Compound A, 210° C, 9 min); 6 GARDNER degrees (Compound A, 210° C, 12 min); 8 GARDNER degrees (Compound A, 210° C, 15 min). For the same compound, where the note is “Compound A, 210° C, 18 min”, the Coloration of sheet amounted to 12 GARDNER degrees.
For the compound `CCOc1c(C)cc(-c2cc3ccccc3[nH]2)cc1C` [Stabilizer 18, 2-(3',5'-dimethyl-4'-ethoxy-phenyl)-indole], the Coloration of sheet by setting is: (Compound A, 210° C, 0 min) 1 GARDNER degrees; (Compound A, 210° C, 3 min) 1 GARDNER degrees; (Compound A, 210° C, 6 min) 2 GARDNER degrees; (Compound A, 210° C, 9 min) 3 GARDNER degrees; (Compound A, 210° C, 12 min) 10 GARDNER degrees; (Compound A, 210° C, 15 min) 11 GARDNER degrees. Besides, the Coloration of sheet (Compound A, 210° C, 18 min) is recorded as 13 GARDNER degrees.
`CCCCCCCCCCCCc1cc(-c2cc3ccccc3[nH]2)ccc1O` [Stabilizer 19, 2-(3'-dodecyl-4'-hydroxy-phenyl)-indole]: the Coloration of sheet is 1 GARDNER degrees (Compound A, 210° C, 0 min); 1 GARDNER degrees (Compound A, 210° C, 3 min); 3 GARDNER degrees (Compound A, 210° C, 6 min); 6 GARDNER degrees (Compound A, 210° C, 9 min); 6 GARDNER degrees (Compound A, 210° C, 12 min); 11 GARDNER degrees (Compound A, 210° C, 15 min). In addition, the Coloration of sheet (Compound A, 210° C, 18 min) was 16 GARDNER degrees.
Regarding `CC(C)c1cc(-c2cc3ccccc3[nH]2)ccc1O` [Stabilizer 20, 2-(3'-isopropyl-4'-hydroxy-phenyl)-indole], the Coloration of sheet (Compound A, 210° C, 0 min) was 1 GARDNER degrees; the Coloration of sheet (Compound A, 210° C, 3 min) is reported as 1 GARDNER degrees; the Coloration of sheet (Compound A, 210° C, 6 min) came out at 3 GARDNER degrees; the Coloration of sheet (Compound A, 210° C, 9 min) amounted to 6 GARDNER degrees; the Coloration of sheet (Compound A, 210° C, 12 min) is given as 10 GARDNER degrees; the Coloration of sheet (Compound A, 210° C, 15 min) came to 11 GARDNER degrees. Besides, the Coloration of sheet result (Compound A, 210° C, 18 min) was “Burnt”.
On to `Oc1ccc(-c2cc3ccccc3[nH]2)cc1C1CCCCC1` [Stabilizer 21, 2-(3'-cyclohexyl-4'-hydroxy-phenyl)-indole], for which the Coloration of sheet by setting is: (Compound A, 210° C, 0 min) 1 GARDNER degrees; (Compound A, 210° C, 3 min) 1 GARDNER degrees; (Compound A, 210° C, 6 min) 2 GARDNER degrees; (Compound A, 210° C, 9 min) 3 GARDNER degrees; (Compound A, 210° C, 12 min) 8 GARDNER degrees; (Compound A, 210° C, 15 min) 12 GARDNER degrees. Besides, the Coloration of sheet (Compound A, 210° C, 18 min) came to 14 GARDNER degrees.
As to `CCOc1ccc(-c2cc3ccccc3[nH]2)cc1OC` [Stabilizer 23, 2-(3'-methoxy-4'-ethoxy-phenyl)-indole], the Coloration of sheet by setting is: (Compound A, 210° C, 0 min) 1 GARDNER degrees; (Compound A, 210° C, 3 min) 1 GARDNER degrees; (Compound A, 210° C, 6 min) 2 GARDNER degrees; (Compound A, 210° C, 9 min) 2 GARDNER degrees; (Compound A, 210° C, 12 min) 3 GARDNER degrees; (Compound A, 210° C, 15 min) 9 GARDNER degrees. Further, for the setting “Compound A, 210° C, 18 min”, the Coloration of sheet entry is on record as “Burnt”.
Turning to `CCCCCCCCCCCCOc1ccc(-c2cc3ccccc3[nH]2)cc1OC` [Stabilizer 24, 2-(3'-methoxy-4'-dodecyloxy-phenyl)-indole], the Coloration of sheet by setting is: (Compound A, 210° C, 0 min) 1 GARDNER degrees; (Compound A, 210° C, 3 min) 1 GARDNER degrees; (Compound A, 210° C, 6 min) 1 GARDNER degrees; (Compound A, 210° C, 9 min) 4 GARDNER degrees; (Compound A, 210° C, 12 min) 10 GARDNER degrees; (Compound A, 210° C, 15 min) 13 GARDNER degrees. For the same compound, the Coloration of sheet entry (Compound A, 210° C, 18 min) is “Burnt”.
In turn, `CCCCOc1ccc(-c2cc3ccccc3[nH]2)cc1OC` [Stabilizer 25, 2-(3'-methoxy-4'-butyloxy-phenyl)-indole] yielded a Coloration of sheet (Compound A, 210° C, 0 min) of 1 GARDNER degrees; a Coloration of sheet (Compound A, 210° C, 3 min) of 1 GARDNER degrees; a Coloration of sheet (Compound A, 210° C, 6 min) of 2 GARDNER degrees; a Coloration of sheet (Compound A, 210° C, 9 min) of 3 GARDNER degrees; a Coloration of sheet (Compound A, 210° C, 12 min) of 9 GARDNER degrees; a Coloration of sheet (Compound A, 210° C, 15 min) of 12 GARDNER degrees. The Coloration of sheet result (Compound A, 210° C, 18 min) is given as “Burnt”.
On to `CCCOc1ccc(-c2cc3ccccc3[nH]2)cc1OC` [Stabilizer 26, 2-(3'-methoxy-4'-propyloxy-phenyl)-indole], for which the Coloration of sheet reads like this: (Compound A, 210° C, 0 min) 1 GARDNER degrees; (Compound A, 210° C, 3 min) 1 GARDNER degrees; (Compound A, 210° C, 6 min) 1 GARDNER degrees; (Compound A, 210° C, 9 min) 2 GARDNER degrees; (Compound A, 210° C, 12 min) 3 GARDNER degrees; (Compound A, 210° C, 15 min) 4 GARDNER degrees. The Coloration of sheet (Compound A, 210° C, 18 min) is 10 GARDNER degrees.
For the compound `COc1cc(-c2cc3ccccc3[nH]2)ccc1OC(C)C` [Stabilizer 27, 2-(3'-methoxy-4'-isopropyloxy-phenyl)-indole], the Coloration of sheet reads like this: (Compound A, 210° C, 0 min) 1 GARDNER degrees; (Compound A, 210° C, 3 min) 1 GARDNER degrees; (Compound A, 210° C, 6 min) 1 GARDNER degrees; (Compound A, 210° C, 9 min) 3 GARDNER degrees; (Compound A, 210° C, 12 min) 4 GARDNER degrees; (Compound A, 210° C, 15 min) 9 GARDNER degrees. In addition, where the note is “Compound A, 210° C, 18 min”, the Coloration of sheet is on record as 13 GARDNER degrees.

Values taken from patent US4096112A, “2-Phenyl-indole derivative stabilizers for PVC resins” (Labaz, priority 1976, dated 1978).
